From PubChem BioAssay AID328 (DTP/NCI, 2004)
The list does not hold the whole screen: it is rich in T/C values a quarter to a half above the control, in often repeated tests (any T/C) and in doses without a T/C. Further doses and runs are listed elsewhere. T/C gives the treated animals as a percentage of the vehicle group. Some entries give survivors of the animals treated and no T/C: the source holds a T/C of zero for them, seemingly a mark for toxic or unscored doses. Some doses without a T/C left all or most animals alive at the check, yet need not have been tolerated: survival well below the control is almost never listed, so the zero probably covers shortened survival too. Survivors were counted at the toxicity check, usually on the fifth day, unless a day is given; later deaths do not show. Schedules are NCI's codes, read here as Q, the interval in days (D) or hours (H), X, the number of doses. For survival time, this PubChem deposit counts one and a half times the control or more as active, and values a quarter to a half above the control carry no call in these data; other NCI protocols may use other cut-offs.

System: BDF1 mice, P388 leukemia ip, median survival T/C
Experiment: NCI In Vivo Anticancer Drug Screen. Data for tumor model P388 Leukemia (intraperitoneal) in B6D2F1 (BDF1) mice
Details: T/C endpoint: median survival time, higher T/C = longer survival
In short: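 In tumour-bearing mice, survival after compound treatment is set against the vehicle group and given as a quotient.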

[1] = dose: 8.0 mg/kg/injection, schedule: Q01DX009 (ip), vehicle: saline
[2] = dose: 200.0 mg/kg/injection, schedule: Q01DX009 (ip), vehicle: saline with Tween-80
[3] = dose: 100.0 mg/kg/injection, schedule: Q01DX009 (ip), vehicle: saline
[4] = dose: 200.0 mg/kg/injection, schedule: Q01DX009 (ip), vehicle: saline
[5] = dose: 400.0 mg/kg/injection, schedule: Q01DX009 (ip), vehicle: saline
[6] = dose: 50.0 mg/kg/injection, schedule: Q01DX009 (ip), vehicle: saline
[7] = dose: 400.0 mg/kg/injection, schedule: Q01DX009 (ip), vehicle: Klucel (hydroxypropylcellulose) (HPC)
[8] = dose: 25.0 mg/kg/injection, schedule: Q01DX009 (ip), vehicle: saline
[9] = dose: 100.0 mg/kg/injection, schedule: Q04DX003 (ip), vehicle: Klucel (hydroxypropylcellulose) (HPC)
[10] = dose: 100.0 mg/kg/injection, schedule: Q01DX009 (ip), vehicle: saline with Tween-80
[11] = dose: 0.12 mg/kg/injection, schedule: Q01DX009 (ip), vehicle: saline

Cc1n(CC(C)C)c2c([n+]1C)C(=O)c1ccccc1C2=O
survivor count (dose: 2.0 mg/kg/injection, schedule: Q01DX010 (ip), vehicle: saline): 6 of 6
survivor count (dose: 4.0 mg/kg/injection, schedule: Q01DX009 (ip), vehicle: saline): 0 of 6
survivor count (dose: 4.0 mg/kg/injection, schedule: Q01DX010 (ip), vehicle: saline): 0 of 6
survivor count [1]: 0 of 6
survivor count (dose: 8.0 mg/kg/injection, schedule: Q01DX010 (ip), vehicle: saline): 0 of 6

CC(C)n1cnc2c(Cl)ncnc21
survivor count [2]: 3 of 6
survivor count (dose: 400.0 mg/kg/injection, schedule: Q01DX009 (ip), vehicle: saline with Tween-80): 4 of 6

CC1C2CCC3C4CC=C5CC(N(C)C)CCC5(C)C4CCC32CN1C (centres undefined)
survivor count [3]: 1 of 6
survivor count [4]: 0 of 6
survivor count [5]: 0 of 6

CC1(C)CO[Se](=O)OC1
survivor count [6]: 0 of 6
survivor count [3]: 0 of 6
survivor count [4]: 0 of 6

COc1cc([N+](=O)[O-])c(C)cc1NCc1ccc(OC)c(OC)c1
survivor count [4]: 6 of 6
survivor count [5]: 6 of 6

CCCCCCc1c(C(OC)OC)[nH]c(=S)[nH]c1=O
survivor count [7]: 4 of 6

COC(=O)C1C2CC[N+]3(CCCCC13)O2 (centres undefined)
survivor count [8]: 1 of 6
survivor count [6]: 1 of 6
survivor count [3]: 4 of 6
survivor count [4]: 0 of 6

CCOC(=O)/C=C(/C)Sc1cc(O)c2ccccc2c1O
T/C (dose: 6.25 mg/kg/injection, schedule: Q01DX009 (ip), vehicle: saline with Tween-80): 130 % of control

CC(=O)NNC(=O)c1ccccc1
T/C [9]: 127 % of control
survivor count (dose: 300.0 mg/kg/injection, schedule: Q01DX009 (ip), vehicle: Klucel (hydroxypropylcellulose) (HPC)): 3 of 6
survivor count [7]: 4 of 6

Cc1c2c(ccc3ccccc32)c[n+]2ccccc12
survivor count [8]: 1 of 6
survivor count (dose: 50.0 mg/kg/injection, schedule: Q04DX003 (ip), vehicle: saline): 0 of 6

CCOCCO
survivor count (dose: 20.0 mg/kg/injection, schedule: Q01DX009 (ip), vehicle: saline): 6 of 6

O=C1c2ccccc2C(=O)C1C(C[N+](=O)[O-])c1ccccc1 (centres undefined)
survivor count (dose: 100.0 mg/kg/injection, schedule: Q01DX005 (ip), vehicle: saline with Tween-80): 3 of 5

O=c1nc(Oc2ccccc2)nc2ccc(Cl)nn12
survivor count [2]: 1 of 6

CCN(CC)CCC(=O)c1ccccc1
survivor count [10]: 3 of 6
survivor count [2]: 0 of 6

C/C(=N\Nc1nc2ccccc2o1)c1ccncc1
survivor count [9]: 6 of 6

Nc1nc(=O)c2[nH]cnc2n1O
survivor count (dose: 40.0 mg/kg/injection, schedule: Q04DX003 (ip), vehicle: saline with Tween-80): 3 of 6
survivor count (dose: 55.0 mg/kg/injection, schedule: Q01DX009 (ip), vehicle: saline): 5 of 6
survivor count (dose: 60.0 mg/kg/injection, schedule: Q04DX003 (ip), vehicle: saline with Tween-80): 1 of 6
survivor count (dose: 90.0 mg/kg/injection, schedule: Q04DX003 (ip), vehicle: saline with Tween-80): 0 of 6

Nc1nc(N)c2cc(Sc3ccc4ccccc4c3)ccc2n1
T/C [2]: 148 % of control

CN(C)c1ncnc2nsnc12
survivor count (dose: 150.0 mg/kg/injection, schedule: Q04DX003 (ip), vehicle: saline with Tween-80): 2 of 6
survivor count (dose: 300.0 mg/kg/injection, schedule: Q04DX003 (ip), vehicle: saline with Tween-80): 0 of 6

CC(C)(C)OC(=O)NC(CCC(=O)O)(Cc1ccccc1)C(=O)NC(CCC(=O)OCc1ccccc1)C(=O)OCc1ccccc1 (centres undefined)
survivor count (dose: 50.0 mg/kg/injection, schedule: Q01DX005 (ip), vehicle: saline with Tween-80): 5 of 5

CC(=O)OC(C)(C)/C=C/C(=O)[C@](C)(O)[C@H]1[C@H](O)C[C@@]2(C)[C@@H]3CC=C4[C@@H](C[C@H](O)C(=O)C4(C)C)[C@]3(C)C(=O)C[C@]12C
T/C (dose: 0.03 mg/kg/injection, schedule: Q01DX009 (ip), vehicle: saline): 125 % of control
T/C (dose: 0.04 mg/kg/injection, schedule: Q01DX009 (ip), vehicle: saline): 130 % of control
survivor count (dose: 0.07 mg/kg/injection, schedule: Q01DX009 (ip), vehicle: saline): 6 of 6
T/C [11]: 125 % of control
survivor count [11]: 5 of 6
survivor count (dose: 0.18 mg/kg/injection, schedule: Q01DX009 (ip), vehicle: saline): 3 of 6
survivor count (dose: 0.25 mg/kg/injection, schedule: Q01DX009 (ip), vehicle: saline): 1 of 6
survivor count (dose: 0.36 mg/kg/injection, schedule: Q04DX003 (ip), vehicle: saline): 3 of 6
T/C (dose: 0.37 mg/kg/injection, schedule: Q01DX009 (ip), vehicle: saline): 135 % of control
survivor count (dose: 0.5 mg/kg/injection, schedule: Q01DX009 (ip), vehicle: saline): 0 of 6
T/C (dose: 0.75 mg/kg/injection, schedule: Q01DX009 (ip), vehicle: saline): 135 % of control
T/C (dose: 1.0 mg/kg/injection, schedule: Q01DX010 (ip), vehicle: carboxymethylcellulose (CMC)): 127 % of control
T/C (dose: 1.5 mg/kg/injection, schedule: Q01DX009 (ip), vehicle: saline): 130 % of control
survivor count (dose: 2.0 mg/kg/injection, schedule: Q01DX010 (ip), vehicle: carboxymethylcellulose (CMC)): 0 of 6
survivor count (dose: 3.0 mg/kg/injection, schedule: Q01DX010 (ip), vehicle: carboxymethylcellulose (CMC)): 2 of 6

CCCCCCCCCCCCCCCCCC[N+](C)(C)C (tested in a mixture with another compound)
survivor count [1]: 3 of 6

C[CH2][Sn]([CH2]C)([CH2]C)[NH]S(=O)(=O)c1ccc(C)cc1
T/C (dose: 1.56 mg/kg/injection, schedule: Q01DX009 (ip), vehicle: Klucel (hydroxypropylcellulose) (HPC)): 125 % of control
survivor count (dose: 28.0 mg/kg/injection, schedule: Q01DX001 (ip), vehicle: Klucel (hydroxypropylcellulose) (HPC)): 1 of 6
survivor count (dose: 40.0 mg/kg/injection, schedule: Q01DX001 (ip), vehicle: Klucel (hydroxypropylcellulose) (HPC)): 0 of 6

CN(c1ccccc1)c1cc2c(cc1[N+](=O)[O-])no[n+]2[O-]
T/C (dose: 30.0 mg/kg/injection, schedule: Q01DX009 (ip), vehicle: saline with Tween-80): 133 % of control

C[N+](C)(C)N=C1CCC2(CC1)c1ccccc1-c1ccccc12
survivor count (dose: 80.0 mg/kg/injection, schedule: Q01DX009 (ip), vehicle: saline): 1 of 6
survivor count (dose: 82.5 mg/kg/injection, schedule: Q04DX003 (ip), vehicle: saline): 3 of 6
survivor count (dose: 165.0 mg/kg/injection, schedule: Q04DX003 (ip), vehicle: saline): 0 of 6

CCOC(=O)C(OCc1ccccc1)(C(=O)NCCc1ccc(OC)c(OC)c1)C(C)C (centres undefined)
survivor count (dose: 200.0 mg/kg/injection, schedule: Q04DX003 (ip), vehicle: other): 6 of 6
survivor count (dose: 400.0 mg/kg/injection, schedule: Q04DX003 (ip), vehicle: other): 5 of 6

O=C(Oc1ccc([N+](=O)[O-])cc1)c1ccc(CBr)cc1
survivor count [3]: 4 of 6
survivor count (dose: 400.0 mg/kg/injection, schedule: Q04DX003 (ip), vehicle: saline): 3 of 6

CCOC(=O)Nc1ccc(/C=C\c2ccnc3ccccc23)cc1
survivor count [10]: 6 of 6
survivor count [2]: 4 of 6

CC1=C/C(O)CC(=O)Cc2nc(co2)C(=O)N2CCC=C2C(=O)OC(C(C)C)C(C)/C=C\C(=O)NC/C=C\1 (centres undefined)
T/C (dose: 200.0 mg/kg/injection, schedule: Q01DX009 (ip), vehicle: Klucel (hydroxypropylcellulose) (HPC)): 136 % of control
T/C [7]: 145 % of control

Cc1cc[n+]2cc3ccc4ccccc4c3c(C)c2c1
T/C (dose: 1.56 mg/kg/injection, schedule: Q01DX009 (ip), vehicle: saline): 130 % of control
T/C (dose: 3.12 mg/kg/injection, schedule: Q01DX009 (ip), vehicle: saline): 135 % of control
survivor count (dose: 6.25 mg/kg/injection, schedule: Q01DX009 (ip), vehicle: saline): 5 of 6
